No constants are given. Whether binding was seen depends on the method and setting. Binding seen in cells or lysates may run through a third protein. Some entries that bind do so weakly or less than the wild type.
Key:
[1] = target: CD95 (human (endogenous in CEM T cells, Th17 cells and activated PBLs)) (UniProt P25445); assay: proximity ligation; CEM T cells and Th17 cells from peripheral blood stimulated with cl-CD95L (100 ng/mL) for indicated times; anti-CD95 and anti-PLCγ1 mAbs
[2] = target: CD95 (human (endogenous in CEM T cells, Th17 cells and activated PBLs)) (UniProt P25445); assay: co-IP; CEM T cells stimulated with cl-CD95L (100 ng/mL), lysed, CD95 immunoprecipitated, immunoblotting

Chains of the proteins cited; added tags and fusions are not shown. Residues count along the entry.
UniProt P25445, residues 26-335: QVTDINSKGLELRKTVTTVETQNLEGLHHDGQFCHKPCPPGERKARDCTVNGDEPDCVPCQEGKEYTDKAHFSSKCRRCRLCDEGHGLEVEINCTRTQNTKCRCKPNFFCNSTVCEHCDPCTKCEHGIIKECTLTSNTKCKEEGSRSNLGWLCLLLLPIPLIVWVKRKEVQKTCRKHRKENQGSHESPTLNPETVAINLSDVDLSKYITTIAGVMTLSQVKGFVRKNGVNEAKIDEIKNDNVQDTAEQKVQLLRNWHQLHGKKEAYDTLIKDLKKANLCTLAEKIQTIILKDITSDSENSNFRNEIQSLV

B1: phospholipase Cγ1 (enzyme, UniProt P19174 1-1290)
chain: MAGAASPCANGCGPGAPSDAEVLHLCRSLEVGTVMTLFYSKKSQRPERKTFQVKLETRQITWSRGADKIEGAIDIREIKEIRPGKTSRDFDRYQEDPAFRPDQSHCFVILYGMEFRLKTLSLQATSEDEVNMWIKGLTWLMEDTLQAPTPLQIERWLRKQFYSVDRNREDRISAKDLKNMLSQVNYRVPNMRFLRERLTDLEQRSGDITYGQFAQLYRSLMYSAQKTMDLPFLEASTLRAGERPELCRVSLPEFQQFLLDYQGELWAVDRLQVQEFMLSFLRDPLREIEEPYFFLDEFVTFLFSKENSVWNSQLDAVCPDTMNNPLSHYWISSSHNTYLTGDQFSSESSLEAYARCLRMGCRCIELDCWDGPDGMPVIYHGHTLTTKIKFSDVLHTIKEHAFVASEYPVILSIEDHCSIAQQRNMAQYFKKVLGDTLLTKPVEISADGLPSPNQLKRKILIKHKKLAEGSAYEEVPTSMMYSENDISNSIKNGILYLEDPVNHEWYPHYFVLTSSKIYYSEETSSDQGNEDEEEPKEVSSSTELHSNEKWFHGKLGAGRDGRHIAERLLTEYCIETGAPDGSFLVRESETFVGDYTLSFWRNGKVQHCRIHSRQDAGTPKFFLTDNLVFDSLYDLITHYQQVPLRCNEFEMRLSEPVPQTNAHESKEWYHASLTRAQAEHMLMRVPRDGAFLVRKRNEPNSYAISFRAEGKIKHCRVQQEGQTVMLGNSEFDSLVDLISYYEKHPLYRKMKLRYPINEEALEKIGTAEPDYGALYEGRNPGFYVEANPMPTFKCAVKALFDYKAQREDELTFIKSAIIQNVEKQEGGWWRGDYGGKKQLWFPSNYVEEMVNPVALEPEREHLDENSPLGDLLRGVLDVPACQIAIRPEGKNNRLFVFSISMASVAHWSLDVAADSQEELQDWVKKIREVAQTADARLTEGKIMERRKKIALELSELVVYCRPVPFDEEKIGTERACYRDMSSFPETKAEKYVNKAKGKKFLQYNRLQLSRIYPKGQRLDSSNYDPLPMWICGSQLVALNFQTPDKPMQMNQALFMTGRHCGYVLQPSTMRDEAFDPFDKSSLRGLEPCAISIEVLGARHLPKNGRGIVCPFVEIEVAGAEYDSTKQKTEFVVDNGLNPVWPAKPFHFQISNPEFAFLRFVVYEEDMFSDQNFLAQATFPVKGLKTGYRAVPLKNNYSEDLELASLLIKIDIFPAKENGDLSPFSGTSLRERGSDASGQLFHGRAREGSFESRYQQPFEDFRISQEHLADHFDSRERRAPRRTRVNGDNRL
With B1 the binding [1] was “binds” and the binding [2] was “binds”.
